Experimental data as given in the supplement of paper PMC8728848.
The list shows a part of the results.

What was measured:
Test in all cases: glycan array binding signal (z-score within array); higher = stronger binding
Details in all cases: glycan notation: IUPAC condensed, linker removed
[1] = target: Gal(b1-4)GlcNAc(b1-3)Gal(b1-4)GlcNAc(b1-3)Gal(b1-4)GlcNAc(b1-3)Gal(b1-4)GlcNAc(b1-2)Man(a1-3)[Gal(b1-4)GlcNAc(b1-3)Gal(b1-4)GlcNAc(b1-3)Gal(b1-4)GlcNAc(b1-3)Gal(b1-4)GlcNAc(b1-2)Man(a1-6)]Man(b1-4)GlcNAc(b1-4)[Fuc(a1-6)]GlcNAc
Method in brief: (§1)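 Columns mapping to the same glycan were averaged after glycan names were converted to IUPAC-condensed notation. The data come from 3228 arrays in the Consortium for Functional Glycomics database, limited to those with an available protein sequence. Binding is reported as a within-array Z-score averaged across arrays of one protein sequence and across linkers.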

[2] = target: Gal(b1-4)GlcNAc(b1-3)Gal(b1-4)GlcNAc(b1-3)Gal(b1-4)GlcNAc(b1-3)Gal(b1-4)GlcNAc(b1-2)[Gal(b1-4)GlcNAc(b1-3)Gal(b1-4)GlcNAc(b1-3)Gal(b1-4)GlcNAc(b1-3)Gal(b1-4)GlcNAc(b1-6)]Man(a1-6)[Gal(b1-4)GlcNAc(b1-3)Gal(b1-4)GlcNAc(b1-3)Gal(b1-4)GlcNAc(b1-3)Gal(b1-4)GlcNAc(b1-2)Man(a1-3)]Man(b1-4)GlcNAc(b1-4)[Fuc(a1-6)]GlcNAc
Method in brief: as §1

[3] = target: Gal(b1-4)GlcNAc(b1-3)Gal(b1-4)GlcNAc(b1-3)Gal(b1-4)GlcNAc(b1-3)Gal(b1-4)GlcNAc(b1-3)Gal(b1-4)GlcNAc(b1-2)Man(a1-3)[Gal(b1-4)GlcNAc(b1-3)Gal(b1-4)GlcNAc(b1-3)Gal(b1-4)GlcNAc(b1-3)Gal(b1-4)GlcNAc(b1-3)Gal(b1-4)GlcNAc(b1-2)Man(a1-6)]Man(b1-4)GlcNAc(b1-4)GlcNAc
Method in brief: as §1

[4] = target: Gal(b1-4)GlcNAc(b1-3)Gal(b1-4)GlcNAc(b1-3)Gal(b1-4)GlcNAc(b1-3)Gal(b1-4)GlcNAc(b1-3)Gal(b1-4)GlcNAc(b1-2)Man(a1-3)[Gal(b1-4)GlcNAc(b1-3)Gal(b1-4)GlcNAc(b1-3)Gal(b1-4)GlcNAc(b1-3)Gal(b1-4)GlcNAc(b1-3)Gal(b1-4)GlcNAc(b1-2)Man(a1-6)]Man(b1-4)GlcNAc(b1-4)[Fuc(a1-6)]GlcNAc
Method in brief: as §1

[5] = target: Gal(b1-4)GlcNAc(b1-3)Gal(b1-4)GlcNAc(b1-3)Gal(b1-4)GlcNAc(b1-3)Gal(b1-4)GlcNAc(b1-3)Gal(b1-4)GlcNAc(b1-2)[Gal(b1-4)GlcNAc(b1-3)Gal(b1-4)GlcNAc(b1-3)Gal(b1-4)GlcNAc(b1-3)Gal(b1-4)GlcNAc(b1-3)Gal(b1-4)GlcNAc(b1-6)]Man(a1-6)[Gal(b1-4)GlcNAc(b1-3)Gal(b1-4)GlcNAc(b1-3)Gal(b1-4)GlcNAc(b1-3)Gal(b1-4)GlcNAc(b1-3)Gal(b1-4)GlcNAc(b1-2)Man(a1-3)]Man(b1-4)GlcNAc(b1-4)[Fuc(a1-6)]GlcNAc
Method in brief: as §1

[6] = target: Gal(b1-4)GlcNAc(b1-3)Gal(b1-4)GlcNAc(b1-3)Gal(b1-4)GlcNAc(b1-3)Gal(b1-4)GlcNAc(b1-3)Gal(b1-4)GlcNAc(b1-3)Gal(b1-4)GlcNAc(b1-2)Man(a1-3)[Gal(b1-4)GlcNAc(b1-3)Gal(b1-4)GlcNAc(b1-3)Gal(b1-4)GlcNAc(b1-3)Gal(b1-4)GlcNAc(b1-3)Gal(b1-4)GlcNAc(b1-3)Gal(b1-4)GlcNAc(b1-2)Man(a1-6)]Man(b1-4)GlcNAc(b1-4)GlcNAc
Method in brief: as §1

[7] = target: Gal(b1-4)GlcNAc(b1-3)Gal(b1-4)GlcNAc(b1-3)GalNAc
Method in brief: as §1

[8] = target: Gal(b1-4)GlcNAc(b1-3)Gal(b1-4)GlcNAc(b1-3)[Gal(b1-4)GlcNAc(b1-3)Gal(b1-4)GlcNAc(b1-6)]GalNAc
Method in brief: as §1

[9] = target: Gal(b1-4)GlcNAc(b1-3)Gal(b1-4)GlcNAc(b1-6)[Gal(b1-3)]GalNAc
Method in brief: as §1

[10] = target: Gal(b1-4)GlcNAc(b1-3)Gal(b1-4)[Fuc(a1-3)]GlcNAc(b1-3)Gal(b1-4)[Fuc(a1-3)]GlcNAc
Method in brief: as §1

[11] = target: Gal(b1-4)GlcNAc(b1-3)GalNAc
Method in brief: as §1

[12] = target: Gal(b1-4)GlcNAc(b1-3)[Fuc(a1-3)GlcNAc(b1-6)]Gal(b1-4)Glc
Method in brief: as §1

[13] = target: Gal(b1-4)GlcNAc(b1-3)[Gal(b1-4)GlcNAc(b1-6)]Gal(b1-4)GlcNAc
Method in brief: as §1

[14] = target: Gal(b1-4)GlcNAc(b1-3)[GlcNAc(b1-6)]Gal(b1-4)GlcNAc
Method in brief: as §1

[15] = target: Gal(b1-4)GlcNAc(b1-6)Gal(b1-4)GlcNAc
Method in brief: as §1

[16] = target: Gal(b1-4)GlcNAc(b1-6)GalNAc
Method in brief: as §1

[17] = target: Gal(b1-4)GlcNAc(b1-6)[Gal(b1-3)]GalNAc
Method in brief: as §1

[18] = target: Gal(b1-4)GlcNAc(b1-6)[Gal(b1-4)GlcNAc(b1-3)]GalNAc
Method in brief: as §1

Gal(b1-4)GlcNAc6P = target: Gal(b1-4)GlcNAc6P
Method in brief: as §1

Gal(b1-6)Gal = target: Gal(b1-6)Gal
Method in brief: as §1

Gal3S(b1-3)GalNAc = target: Gal3S(b1-3)GalNAc
Method in brief: as §1

Gal3S(b1-3)GlcNAc = target: Gal3S(b1-3)GlcNAc
Method in brief: as §1

[19] = target: Gal3S(b1-3)[Fuc(a1-4)]GlcNAc
Method in brief: as §1

Gal3S(b1-4)Glc = target: Gal3S(b1-4)Glc
Method in brief: as §1

Gal3S(b1-4)Glc6S = target: Gal3S(b1-4)Glc6S
Method in brief: as §1

Gal3S(b1-4)GlcNAc = target: Gal3S(b1-4)GlcNAc
Method in brief: as §1

[20] = target: Gal3S(b1-4)[Fuc(a1-3)]Glc6S
Method in brief: as §1

[21] = target: Gal3S(b1-4)[Fuc(a1-3)]GlcNAc
Method in brief: as §1

[22] = target: Gal3S(b1-4)[Fuc(a1-3)]GlcNAc6S
Method in brief: as §1

Gal3S4S(b1-4)GlcNAc = target: Gal3S4S(b1-4)GlcNAc
Method in brief: as §1

Gal3S6S(b1-4)GlcNAc = target: Gal3S6S(b1-4)GlcNAc
Method in brief: as §1

Gal3S6S(b1-4)GlcNAc6S = target: Gal3S6S(b1-4)GlcNAc6S
Method in brief: as §1

Gal4S(b1-4)GlcNAc = target: Gal4S(b1-4)GlcNAc
Method in brief: as §1

Gal4S6S(b1-4)GlcNAc = target: Gal4S6S(b1-4)GlcNAc
Method in brief: as §1

Gal6P(b1-4)GlcNAc = target: Gal6P(b1-4)GlcNAc
Method in brief: as §1

Gal6S(b1-3)GlcNAc = target: Gal6S(b1-3)GlcNAc
Method in brief: as §1

Gal6S(b1-3)GlcNAc6S = target: Gal6S(b1-3)GlcNAc6S
Method in brief: as §1

Gal6S(b1-4)Glc = target: Gal6S(b1-4)Glc
Method in brief: as §1

B1: TAL6-4LysM (Trichoderma atroviride) (protein)
chain: AADSIPSISPTGIITPTPTQSGMVSNCNKFYDVHSNDGCSAIASSQHVDLSSLYKWNPAIKTDCSGLQASVYVCIGILTTSMSTTSKLPTTTSKPSTTSKPPTGITTPTPTQSGMVKNCNKFYDVHSGDGCSAIASSQKVNLSSFYLWNPAVKTDCSGLQASVFVCIGTLTTSMSTTTSKLPTTTSKPSTTSKPPTGIITPTPTQNGMVKNCNKFYDVHSGDGCSAIASSQKVNLSSFYLWNPAVKTDCSGLQASVFVCVGTATTTTAAGITTPTPTQSGMVSGCNKFYDVHAGDGCSAIASSQKIALSSLYKWNPAVKTDCSGLQASVYICIGVGNAAAARVTGALEQKLISEEDLNSAVDHHHHHH
- glycan array binding signal (z-score) [1]: 0.567
- glycan array binding signal (z-score) [2]: 0.311
- glycan array binding signal (z-score) [3]: -0.74
- glycan array binding signal (z-score) [4]: 1.5
- glycan array binding signal (z-score) [5]: -0.777
- glycan array binding signal (z-score) [6]: 0.225
- glycan array binding signal (z-score) [7]: 0.204
- glycan array binding signal (z-score) [8]: 0.88
- glycan array binding signal (z-score) [9]: 1.17
- glycan array binding signal (z-score) [10]: -0.176
- glycan array binding signal (z-score) [11]: -0.187
- glycan array binding signal (z-score) [12]: -1.77
- glycan array binding signal (z-score) [13]: 0.074
- glycan array binding signal (z-score) [14]: 0.861
- glycan array binding signal (z-score) [15]: -0.276
- glycan array binding signal (z-score) [16]: 0.76
- glycan array binding signal (z-score) [17]: -0.122
- glycan array binding signal (z-score) [18]: 0.866
- glycan array binding signal (z-score) (Gal(b1-4)GlcNAc6P): 1.53
- glycan array binding signal (z-score) (Gal(b1-6)Gal): -0.059
- glycan array binding signal (z-score) (Gal3S(b1-3)GalNAc): -1.27
- glycan array binding signal (z-score) (Gal3S(b1-3)GlcNAc): 1.92
- glycan array binding signal (z-score) [19]: -1.3
- glycan array binding signal (z-score) (Gal3S(b1-4)Glc): 1.82
- glycan array binding signal (z-score) (Gal3S(b1-4)Glc6S): 0.91
- glycan array binding signal (z-score) (Gal3S(b1-4)GlcNAc): -0.395
- glycan array binding signal (z-score) [20]: 0.417
- glycan array binding signal (z-score) [21]: -0.031
- glycan array binding signal (z-score) [22]: 0.652
- glycan array binding signal (z-score) (Gal3S4S(b1-4)GlcNAc): -0.189
- glycan array binding signal (z-score) (Gal3S6S(b1-4)GlcNAc): 2.28
- glycan array binding signal (z-score) (Gal3S6S(b1-4)GlcNAc6S): 1.88
- glycan array binding signal (z-score) (Gal4S(b1-4)GlcNAc): 0.035
- glycan array binding signal (z-score) (Gal4S6S(b1-4)GlcNAc): 1.94
- glycan array binding signal (z-score) (Gal6P(b1-4)GlcNAc): 0.133
- glycan array binding signal (z-score) (Gal6S(b1-3)GlcNAc): -1.32
- glycan array binding signal (z-score) (Gal6S(b1-3)GlcNAc6S): 0.018
- glycan array binding signal (z-score) (Gal6S(b1-4)Glc): -0.536
